Laboratory results from patent publication US20220168261A1, “COMPOUNDS AND METHODS FOR MANAGING CANCER THROUGH IMMUNE SYSTEM” (AKAMARA THERAPEUTICS, INC., priority 2019, published 2022).

Tested on: 5′ GMP
Assay: 1H NMR reaction with nucleotides

CC(C)CCC[C@@H](C)[C@H]1CCC2C3CC=C4C[C@@H](OCCN(CC(=O)[O-])CC(=O)[O][Pt+]5[NH][C@@H]6CCCC[C@H]6[NH]5)CC[C@]4(C)C3CC[C@@]21C (some centres unmarked) [Compound 1]
Adduct formation with 5′ GMP (1H NMR): does not react with DNA nucleotide

O=C1[O][Pt]2([NH][C@@H]3CCCC[C@H]3[NH]2)[O]C1=O [oxaliplatin, reference compound]
Adduct formation with 5′ GMP (1H NMR): Pt-GMP adduct formation
